Results are given in words; binding and its absence hold for the method and conditions named. In cells and extracts the contact can be indirect. Here binding means that the protein was enriched with, or labelled near, the bait; the list need not be complete. For part of these data: A no says only that the protein was not detected with the bait.
B1: TRF, T. brucei telomere-binding protein (protein, UniProt Q4VHG6 1-382)
chain: MYCHAGVPSTSPSPTDFSEVHKILCGHIKQGNNFSVAAAVALEPLHGSSEFWRTCGYRSGIVSALLASSLGVQRETDQLSHLEPMTVADVYAMFRHVVDENAHLRQIIARLESGECDPDDGSGGITSSAERLRSLISEGYDALTGRSSPCMGEDDCGQTPGKWKTCSSGAAGTKRRRDSPEVTERAYVRPESPVPASETLSPAANSGDDTVDEAEQNNALDVLEQLPALPGTTRTVSSFDAVGEMVNRGAGGPSLHPTNPSEFRVGSERGSTIETHSSSELSNFANVGVGTSSGKQKRYKFSASEDEAIIKGLARFTKGQQRFQQIYYAYRSVWHPARTVSQLYDHWRGTLRYKVIQQQGYRGKNSVAARSPEKASNMENNE
B2: RAP1, T. brucei telomere-binding protein (protein, UniProt C1JEX5 1-855)
chain: MTDVDGGSGASWKRLRFFVCADTLLTFQPVDSSHLEGRPGQPEQRYLLVDGEYRPITSYPTSSLFLETLKLAGSTVVVIAPWKRAKTKKLLSLFGWTAFDEIRSIHPEPGRDKLHLACIGCSADEYSTSVIVATSRADWSPSMYPQLVEVKHGVNQVPHSLALLRALSSCLRLAEWQVRLPHVPISSCATLCRSRLFSHCRFFLEPVASEDATVALSINEHGGYIVTRREDATHCVVSGSLPNLPGDISNLPPGGCAAKAVKECSVLPTSAEGRSAEPKSAKVDTDSVSLVKNQVDESDDSIKDEFSYSAGNAATAMVECGDEGVWNEENADDEDPVTMIPPGTFSEDDEDDAPGGLEEADGETVTTVTTQWLKDCAEGLFMYPPQVSHTSKDGSDWNITGLLLATILPTSDAEPLLLSSFNTFAERSGFEPLQLNSADEGGLAEVMQRQWGGVLCMEEKDGDFLLSQTNIYTEAFSDEMDKHLTFVANRFCEAWKDAVQRRRALLGSDAGTQTTVSITVTFGTNTEVEVAPSVQPPPPPPPAPQPTTASAAANEGSKESATPALPFLMRALGPAEWAKEVEAPRSPPPSAVPDIPLKQDPVPSGEGVATAENSVGNDQKESTSRQVAGDAGDTANVAEATEEIAALDQPFEKCFIPTEALGSDREGLDRTQLERQLPFRNYPIKLNVSKSGIFCQFPTVSDAKRFYEEGTVEILNRSLPIKPVFEKRNETVAPAERKRRRSVSPGGVHPQTAAVSALSRRGIQGATYARTQRSRTDNGWKAEGDRNPFVLTEEENSLLTSLGITYTYALENVPLLEHYAQKDLSSKVYRKEKGVLVKMLEKLKAVKGTTSKAPQ

Key:
[1] = molecular target: VSG exclusion factor 2 (VEX2) with an N-terminal GFP tag, tagged at the native locus (T. brucei); assay: affinity purification with mass spectrometry; as a1 but with the alternative extraction buffer (by the methods 100 mM NaCl/0.1% Tween-20)
[2] = molecular target: VSG exclusion factor 2 (VEX2) with an N-terminal GFP tag, tagged at the native locus (T. brucei); assay: affinity purification with mass spectrometry; GFP-VEX2 held on GFP-Trap magnetic agarose beads from cryo-milled bloodstream-form T. brucei; 20 mM HEPES pH 7.4, 1 mM MgCl2, 10 uM CaCl2, sodium citrate (250 mM)/0.1% Tween-20; 4 °C, 2 h; LC-MS/MS, label-free, against an untagged wild-type control; three replicates

Binder | binding [1] | binding [2]
B1 | binds weakly | binds weakly
B2 |  | no binding

Source: article PMC10713589
